Measurements reported in paper PMC12256266.
No constants are given. Whether binding was seen depends on the method and setting. Binding seen in cells or lysates may run through a third protein. A yes stands for co-enrichment or nearness to the bait. Other partners may have been found.

Sequences of proteins named here, by UniProt entry; tags and fusion partners are left off.
UniProt P35222: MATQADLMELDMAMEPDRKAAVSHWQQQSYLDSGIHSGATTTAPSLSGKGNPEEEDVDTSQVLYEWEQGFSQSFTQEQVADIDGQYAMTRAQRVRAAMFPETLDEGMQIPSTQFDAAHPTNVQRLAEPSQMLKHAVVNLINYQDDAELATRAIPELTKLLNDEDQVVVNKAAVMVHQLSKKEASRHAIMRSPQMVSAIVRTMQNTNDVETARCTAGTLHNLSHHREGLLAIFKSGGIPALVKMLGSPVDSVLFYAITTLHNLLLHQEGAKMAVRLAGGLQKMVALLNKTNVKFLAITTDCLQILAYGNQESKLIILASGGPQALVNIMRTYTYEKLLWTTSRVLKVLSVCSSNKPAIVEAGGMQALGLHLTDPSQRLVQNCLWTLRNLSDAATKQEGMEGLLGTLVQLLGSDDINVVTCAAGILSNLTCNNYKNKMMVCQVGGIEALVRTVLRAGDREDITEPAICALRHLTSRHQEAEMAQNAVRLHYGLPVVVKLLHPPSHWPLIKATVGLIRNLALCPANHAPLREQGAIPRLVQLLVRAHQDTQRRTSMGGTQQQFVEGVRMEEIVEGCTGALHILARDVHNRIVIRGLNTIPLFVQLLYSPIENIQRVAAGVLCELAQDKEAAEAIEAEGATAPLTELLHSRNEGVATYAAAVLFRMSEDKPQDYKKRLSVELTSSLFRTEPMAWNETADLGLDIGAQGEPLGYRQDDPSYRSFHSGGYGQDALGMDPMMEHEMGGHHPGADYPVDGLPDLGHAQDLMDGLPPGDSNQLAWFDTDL
UniProt Q96DH6: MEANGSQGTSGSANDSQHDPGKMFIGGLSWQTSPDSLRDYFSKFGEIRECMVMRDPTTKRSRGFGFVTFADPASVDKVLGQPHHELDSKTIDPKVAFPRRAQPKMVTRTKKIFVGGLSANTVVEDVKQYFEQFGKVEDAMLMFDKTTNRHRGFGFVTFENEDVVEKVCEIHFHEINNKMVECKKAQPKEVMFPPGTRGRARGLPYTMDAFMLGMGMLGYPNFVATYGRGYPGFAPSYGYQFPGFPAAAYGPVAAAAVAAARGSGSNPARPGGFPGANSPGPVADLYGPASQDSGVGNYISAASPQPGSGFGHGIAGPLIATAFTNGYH

Target: β-catenin (human (endogenous in K562, HEL and primary AML cells)) (UniProt P35222)
Assay: affinity purification with mass spectrometry; β-catenin Co-IP (relative to IgG Co-IP) from cytosolic fractions of K562 and HEL cells, mass spectrometry; also colorectal SW620 cells (Supplementary Fig. S4)

In the case of “Musashi-2 (MSI2) (from UniProt Q96DH6 1-328)”, the binding is reported as “binds”.
